Results from the supplement of paper PMC4604168 (melanoma cell lines).
The list shows a part of the results. Repeats are few or missing, and single values can be far off.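 Cells were imaged in 1,536-well plates, and nuclei stained with an antibody against cleaved PARP were counted against all DNA-stained nuclei to give the apoptosis fraction. Screening doses were chosen to leave most cells alive, and resting and induced cleaved-PARP levels differ strongly between cell lines.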

What was measured:
Test in all cases: cleaved PARP positive nuclei fraction relative to DMSO control; melanoma cells; higher = more apoptosis
Settings in all cases: library dose: low library concentration; 72 h
MZ2-MEL = tested on: MZ2-MEL
MeWo = tested on: MeWo
RPMI7951 = tested on: RPMI7951
RVH-421 = tested on: RVH-421
SkMel28 = tested on: SkMel28
SkMel2 = tested on: SkMel2
SkMel30 = tested on: SkMel30
SkMel5 = tested on: SkMel5
UACC257 = tested on: UACC257
UACC62 = tested on: UACC62

SMILES	cleaved PARP positive nuclei fraction (MZ2-MEL) [%]	cleaved PARP positive nuclei fraction (MeWo) [%]	cleaved PARP positive nuclei fraction (RPMI7951) [%]	cleaved PARP positive nuclei fraction (RVH-421) [%]	cleaved PARP positive nuclei fraction (SkMel28) [%]	cleaved PARP positive nuclei fraction (SkMel2) [%]	cleaved PARP positive nuclei fraction (SkMel30) [%]	cleaved PARP positive nuclei fraction (SkMel5) [%]	cleaved PARP positive nuclei fraction (UACC257) [%]	cleaved PARP positive nuclei fraction (UACC62) [%]
C[As](C)SC[C@H](NC(=O)CC[C@H](N)C(=O)O)C(=O)NCC(=O)O [Darinaparsin] + CN(C)S(=O)(=O)c1ccc2c(c1)/C(=C/c1cc3c([nH]1)CCCC3)C(=O)N2 [SU6656] (first compound 0.4 µM, partner dose 0.4 µM)	55.2	111	73.5	103	86.8	36.2	70	46.4	90.4	30.4
N.N.[Cl][Pt][Cl] [cisplatin] + C[C@@H]1CCN(C(=O)CC#N)C[C@@H]1N(C)c1ncnc2[nH]ccc12 [CP690550] (first compound 1.6 µM, partner dose 1 µM)	234	110	176	24.4	84.3	57.9	63.4	106	191	78.8
Cn1cc(C2=C(c3cn(C4CCN(Cc5ccccn5)CC4)c4ccccc34)C(=O)NC2=O)c2ccccc21 [Enzastaurin] + COc1ccc(COc2ccc(Cc3cnc(N)nc3N)cc2OC)cc1 [GW2580] (first compound 0.8 µM, partner dose 1 µM)	118	80.8	53.4	62.6	46	270	30.7	80.2	187	51.1
C[C@@H](Oc1cc(-c2cnn(C3CCNCC3)c2)cnc1N)c1c(Cl)ccc(F)c1Cl [Crizotinib] + O=C(Oc1ccc([N+](=O)[O-])cc1)N1CCC(C(O)(c2ccc3c(c2)OCO3)c2ccc3c(c2)OCO3)CC1 [JZL184] (first compound 0.2 µM, partner dose 1 µM)	142	140	101	108	136	35.5	99.6	74.1	181	85
Cc1cc(Nc2cc(N3CCN(C)CC3)nc(/C=C/c3ccccc3)n2)n[nH]1 + O=C(Oc1ccc([N+](=O)[O-])cc1)N1CCC(C(O)(c2ccc3c(c2)OCO3)c2ccc3c(c2)OCO3)CC1 [JZL184] (first compound 0.04 µM, partner dose 1 µM)	91.8	78.2	203	194	185	43.6	81.3	107	26.6	213
N.N.[Cl][Pt][Cl] [cisplatin] + CC(C)(C)c1cnc(CSc2cnc(NC(=O)C3CCNCC3)s2)o1 [SNS-032] (first compound 1.6 µM, partner dose 0.01 µM)	121	103	40.8	64.4	128	98.9	63.4	133	90.6	141
Cn1cc(C2=C(c3cn(C4CCN(Cc5ccccn5)CC4)c4ccccc34)C(=O)NC2=O)c2ccccc21 [Enzastaurin] + CCN(CC)CCCCNc1ncc2cc(-c3cc(OC)cc(OC)c3)c(NC(=O)NC(C)(C)C)nc2n1 [PD173074] (first compound 0.8 µM, partner dose 0.1 µM)	154	74.5	74.4	90.2	117	262	89.7	79.7	106	75.1
Cn1cc(C2=C(c3cn(C4CCN(Cc5ccccn5)CC4)c4ccccc34)C(=O)NC2=O)c2ccccc21 [Enzastaurin] + NCC(=O)Nc1ccc(-n2nc(C(F)(F)F)cc2-c2ccc3c(ccc4ccccc43)c2)cc1 [OSU03012] (first compound 0.8 µM, partner dose 1 µM)	49.5	52.1	111	100	62.9	111	107	71.8	84.7	51.7
O=C(/C=C/c1cccnc1)NCCCCC1CCN(C(=O)c2ccccc2)CC1 + C/C(O)=C(\C#N)C(=O)Nc1cc(Br)ccc1Br [LFM-A13] (first compound 0.01 µM, partner dose 2 µM)	513	56.4	64.3	168	21.4	337	92.7	162	81.7	156
CCCCCCCCc1ccc(CCC(N)(CO)CO)cc1 [fingolimod] + C/C(O)=C(\C#N)C(=O)Nc1cc(Br)ccc1Br [LFM-A13] (first compound 2 µM, partner dose 2 µM)	72.3	92.1	62.8	83.1	125	62.3	156	283	84.6	244
CS(=O)(=O)c1ccc(C(=O)Nc2ccc(Cl)c(-c3ccccn3)c2)c(Cl)c1 [vismodegib] + Cc1cc(SCc2sc(-c3ccc(C(F)(F)F)c(F)c3)nc2C)ccc1OCC(=O)O [GW0742] (first compound 1 µM, partner dose 2 µM)	93.2	103	34.3	56.4	94.7	79.7	88.2	31.1	96.8	93.9
Nc1ncn([C@H]2C[C@H](O)[C@@H](CO)O2)c(=O)n1 [decitabine] + O=C(Oc1ccc([N+](=O)[O-])cc1)N1CCC(C(O)(c2ccc3c(c2)OCO3)c2ccc3c(c2)OCO3)CC1 [JZL184] (first compound 0.1 µM, partner dose 1 µM)	87.3	86.6	90.3	134	24.7	70	629	87.7	241	110
Clc1ccc(Nc2nnc(Cc3ccncc3)c3ccccc23)cc1 [vatalanib] + C/C(O)=C(\C#N)C(=O)Nc1cc(Br)ccc1Br [LFM-A13] (first compound 2 µM, partner dose 2 µM)	122	55.5	95.1	104	214	34.8	45.9	125	85.8	32
N.N.[Cl][Pt][Cl] [cisplatin] + CCc1ccc(CCOc2ccc(CC3SC(=O)NC3=O)cc2)nc1 [pioglitazone] (first compound 1.6 µM, partner dose 2 µM)	304	84.3	148	108	182	239	119	81	81.4	124
Cn1cc(C2=C(c3cn(C4CCN(Cc5ccccn5)CC4)c4ccccc34)C(=O)NC2=O)c2ccccc21 [Enzastaurin] + Cc1cc(N2CCOCC2)cc2[nH]c(-c3c(NC[C@@H](O)c4cccc(Cl)c4)cc[nH]c3=O)nc12 [BMS536924] (first compound 0.8 µM, partner dose 0.2 µM)	99.6	139	96.2	97.4	61	163	71.9	72.2	96.3	114
N.N.[Cl][Pt][Cl] [cisplatin] + NC(=O)Nc1cc(-c2cccc(F)c2)sc1C(=O)N[C@H]1CCCNC1 [AZD7762] (first compound 1.6 µM, partner dose 0.02 µM)	106	135	41.6	108	147	64.5	59.7	120	307	79.3
C[As](C)SC[C@H](NC(=O)CC[C@H](N)C(=O)O)C(=O)NCC(=O)O [Darinaparsin] + COc1cc(Nc2ncc(F)c(Nc3ccc4c(n3)NC(=O)C(C)(C)O4)n2)cc(OC)c1OC [Tamatinib] (first compound 0.4 µM, partner dose 0.4 µM)	85.8	148	117	39.1	237	140	78.7	49.2	337	100
Cn1cc(C2=C(c3cn(C4CCN(Cc5ccccn5)CC4)c4ccccc34)C(=O)NC2=O)c2ccccc21 [Enzastaurin] + CC(C)CCN1c2nc(Nc3cc(F)c(O)c(F)c3)ncc2N(C)C(=O)C1C [BID1870] (first compound 0.8 µM, partner dose 0.2 µM)	102	92	144	52.4	35.7	185	40.4	76	137	92.8
CCCCCCCCCCCCCCCCCCOP(=O)([O-])OC1CC[N+](C)(C)CC1 [Perifosine] + Cc1cc(SCc2sc(-c3ccc(C(F)(F)F)c(F)c3)nc2C)ccc1OCC(=O)O [GW0742] (first compound 0.4 µM, partner dose 2 µM)	18.8	77.6	91.5	126	81.4	65.1	105	138	164	202
Cn1cc(C2=C(c3cn(C4CCN(Cc5ccccn5)CC4)c4ccccc34)C(=O)NC2=O)c2ccccc21 [Enzastaurin] + Oc1cc(-c2nc(-c3ccccc3)[nH]c2-c2ccncc2)ccc1Cl [L779450] (first compound 0.8 µM, partner dose 0.2 µM)	118	67.8	232	106	192	67.5	112	62.3	75.8	128
Cn1cc(C2=C(c3cn(C4CCN(Cc5ccccn5)CC4)c4ccccc34)C(=O)NC2=O)c2ccccc21 [Enzastaurin] + CN(NC(=O)CC(=O)NN(C)C(=S)c1ccccc1)C(=S)c1ccccc1 [STA4783] (first compound 0.8 µM, partner dose 0.006 µM)	97.2	152	156	81.2	54.4	26.3	58.2	129	42.2	133
C[C@]1(O)C[C@@H](c2nc(-c3ccc4ccc(-c5ccccc5)nc4c3)c3c(N)nccn32)C1 + C/C(O)=C(\C#N)C(=O)Nc1cc(Br)ccc1Br [LFM-A13] (first compound 0.4 µM, partner dose 2 µM)	165	60.7	48.8	119	153	156	103	6850	119	251
Cc1cc(Nc2cc(N3CCN(C)CC3)nc(/C=C/c3ccccc3)n2)n[nH]1 + Cc1cc(SCc2sc(-c3ccc(C(F)(F)F)c(F)c3)nc2C)ccc1OCC(=O)O [GW0742] (first compound 0.04 µM, partner dose 2 µM)	264	116	132	93.6	93.3	175	130	74.3	45.9	110

Part of the list above in another layout:

| SMILES | cleaved PARP positive nuclei fraction (MZ2-MEL) [%] | cleaved PARP positive nuclei fraction (MeWo) [%] | cleaved PARP positive nuclei fraction (RPMI7951) [%] | cleaved PARP positive nuclei fraction (RVH-421) [%] | cleaved PARP positive nuclei fraction (SkMel28) [%] | cleaved PARP positive nuclei fraction (SkMel2) [%] | cleaved PARP positive nuclei fraction (SkMel30) [%] | cleaved PARP positive nuclei fraction (SkMel5) [%] | cleaved PARP positive nuclei fraction (UACC257) [%] | cleaved PARP positive nuclei fraction (UACC62) [%] |
| --- | --- | --- | --- | --- | --- | --- | --- | --- | --- | --- |
| N.N.[Cl][Pt][Cl] [cisplatin] + NC(=O)Nc1cc(-c2cccc(F)c2)sc1C(=O)N[C@H]1CCCNC1 [AZD7762] (first compound 1.6 µM, partner dose 0.02 µM) | 106 | 135 | 41.6 | 108 | 147 | 64.5 | 59.7 | 120 | 307 | 79.3 |
| C[As](C)SC[C@H](NC(=O)CC[C@H](N)C(=O)O)C(=O)NCC(=O)O [Darinaparsin] + COc1cc(Nc2ncc(F)c(Nc3ccc4c(n3)NC(=O)C(C)(C)O4)n2)cc(OC)c1OC [Tamatinib] (first compound 0.4 µM, partner dose 0.4 µM) | 85.8 | 148 | 117 | 39.1 | 237 | 140 | 78.7 | 49.2 | 337 | 100 |
